Results are given in words; binding and its absence hold for the method and conditions named. Binding seen in cells or lysates may run through a third protein. Some binding calls cover weakened binding; strength is not graded here.
Biological target: Flag-tagged full-length MASP-2 (human) (UniProt O00187)
Test: co-IP

Amino acid sequences for entries named in this document (tags omitted). Residues count along the entry.
UniProt O00187, 16-686: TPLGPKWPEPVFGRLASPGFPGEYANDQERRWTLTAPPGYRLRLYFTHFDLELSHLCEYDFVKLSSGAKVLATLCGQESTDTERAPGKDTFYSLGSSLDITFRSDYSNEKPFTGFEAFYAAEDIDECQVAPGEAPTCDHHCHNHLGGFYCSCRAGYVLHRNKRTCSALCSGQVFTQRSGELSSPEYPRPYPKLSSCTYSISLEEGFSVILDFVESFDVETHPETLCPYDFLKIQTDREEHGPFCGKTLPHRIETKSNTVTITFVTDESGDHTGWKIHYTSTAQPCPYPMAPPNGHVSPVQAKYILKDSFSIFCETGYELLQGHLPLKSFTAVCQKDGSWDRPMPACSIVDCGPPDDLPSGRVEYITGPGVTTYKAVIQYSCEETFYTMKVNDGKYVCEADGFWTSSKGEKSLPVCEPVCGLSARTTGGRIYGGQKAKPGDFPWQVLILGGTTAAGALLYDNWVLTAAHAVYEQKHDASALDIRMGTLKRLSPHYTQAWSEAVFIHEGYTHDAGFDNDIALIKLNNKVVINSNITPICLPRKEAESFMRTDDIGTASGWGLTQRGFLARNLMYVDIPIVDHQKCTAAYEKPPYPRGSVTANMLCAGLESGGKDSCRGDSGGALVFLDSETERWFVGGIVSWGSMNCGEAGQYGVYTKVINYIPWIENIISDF

Substance: GFP-tagged N-terminal domain (residues 1-175) of the SARS-CoV N protein (from UniProt P59595 1-175) (domain or fragment)
- binding: binds

Source: paper doi:10.1101/2020.03.29.20041962
